According to US20210393785A1, “Nucleic acid nanocarrier drug and preparation method thereof” (BAI YAO ZHI DA (BEIJING) NANOBIO TECHNOLOGY CO., LTD., priority 2018, published 2021):

Test system: SKOV3 cells
Assay: Cytotoxicity in SKOV3 cells (CellTiter-Glo)
Assay type: cell-based
Conditions: treatment time 72 h

For `N.N.[Cl][Pt][Cl]` [Cisplatin], which IC50 is on record?
Its IC50 is 45.7 µM.
